Data published in PMC4199500.

Protein sequences, listed by entry. Tags and fused reporters are not part of them.
UniProt P31947: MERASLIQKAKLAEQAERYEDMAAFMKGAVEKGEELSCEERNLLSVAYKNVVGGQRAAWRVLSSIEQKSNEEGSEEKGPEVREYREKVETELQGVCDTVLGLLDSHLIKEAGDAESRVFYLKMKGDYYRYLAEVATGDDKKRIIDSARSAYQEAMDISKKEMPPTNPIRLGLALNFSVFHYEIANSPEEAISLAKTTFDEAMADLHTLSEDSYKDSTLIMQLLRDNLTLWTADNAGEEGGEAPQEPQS

Biological target: HA-tagged 14-3-3σ (UniProt P31947)
Experiment: co-IP; HEK293T cells co-transfected with combinations of HA-14-3-3σ, Myc- or V5-TDP-43 and Flag-FOXO, 1 mM H2O2 stress; lysis in 50 mM Tris-HCl pH 8.0, 150 mM NaCl, 0.4 mM EDTA, 1% NP-40, 0.05% sodium deoxycholate; anti-HA antibody overnight at 4°C, protein G-Sepharose, western blotting

binding: binds
Substance: V5-TDP-43 ΔNLS (mutant TDP-43 lacking the nuclear localization signal) (from UniProt Q13148)

These are yes or no findings as the source states them, for the method shown. Binding seen in cells or lysates may run through a third protein. Binding calls can cover weak binding; strength is not graded here.
